Results: the supplement of paper PMC10338343
± gives the standard deviation. The entries are a selection whose mix differs from that of the whole data set. The uncertainty is large for many entries.

What follows are sequences tested on MIWI (PIWIL1) piRISC loaded with L1MC piRNA (30 nt) (assay: pre-steady-state target cleavage rate (min^-1); MIWI and MILI are mouse PIWI proteins and EfPiwi is from a freshwater sponge; tags in brackets are library labels; higher = faster piRNA-guided slicing of the target). Conditions: guide: L1MC piRNA 5'p-UAACUAAAUACUAUGCAAGCUGUAGGUCCU; auxiliary factor: none (no GTSF1).
In short: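 Active affinity-purified piRISC (1 nM) loaded with one synthetic guide was mixed with a transcribed, DNA-blocked target RNA library (0.1 nM), with or without 500 nM GTSF1 partner protein, in HEPES–potassium acetate buffer at 33 °C for 0–8 or 0–960 min. Uncleaved targets were sequenced, normalised to depth and to weakly complementary targets, and pooled across three trials, with k3 capped at 0.0001 min^-1. The pre-steady-state cleavage rate was determined with a burst-and-steady-state fit.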
For UCCUGGAUGUCGAUGGAUAGUAUUUAGUUA, the “pre-steady-state target cleavage rate” value was 0.000529 ± 0.012. UCCUGCUACAGCUUGCAUAGUGUUUAGUUA was tested, and the “pre-steady-state target cleavage rate” value was 0.0278 ± 0.0045. In the case of UCCUGCUACAGCUUGCAUAGUCAUUUAGUUA, the “pre-steady-state target cleavage rate” value is reported as 0.00362 ± 0.0031. For UCCUGGAUGAGCUUGCAUUCUAUUUAGAAA, the “pre-steady-state target cleavage rate” value was 0.0005 ± 0.016. UCCUGGAUGUGCUUGCAUAGUUUUAGUUA was tested, and the “pre-steady-state target cleavage rate” value was 0.00176 ± 0.0052. UCCUGGAUGUCGAUGCAUAUGUAUUUAGUUA was tested, and the “pre-steady-state target cleavage rate” value was 0.000671 ± 0.011. With UCCUGGAUGUCGUUGCAUAGUAUUUAGAUUA the “pre-steady-state target cleavage rate” value was 0.00101 ± 0.0084. With UCCUGGAUGUGCUUGCAUAGUAUUUAGGUUA the “pre-steady-state target cleavage rate” value was 0.0232 ± 0.0058. For UCCUGGAUCAGCUUGCAUAUGUAUUUAGUUA, the “pre-steady-state target cleavage rate” value was 0.00154 ± 0.0049. With UCCUGGAUCAGCUUGCAUGAGUAUUUAGUUA the “pre-steady-state target cleavage rate” value was 0.000312 ± 0.013. UCCUGGAUGAGCUUGCAUGGUAUUUAGUUA was tested, and the “pre-steady-state target cleavage rate” value was 0.0817 ± 0.02. With UCCUGGAUGUCCUUUCAUAGUAUUUAGUUA the “pre-steady-state target cleavage rate” value was 0.000776 ± 0.0064. For UCCUGGAUGUCGAAGCAAAGUAUUUAGUUA, the “pre-steady-state target cleavage rate” value was 0.0007 ± 0.0076. In the case of UCCUGGAUCACGUUGCAUAGUAUUUAGUAA, the “pre-steady-state target cleavage rate” value is reported as 0.00275 ± 0.0033. With UCCUGGAUGUGCUUGCUAGUAUUUAGUUA the “pre-steady-state target cleavage rate” value was 0.0014 ± 0.0044. With UCCUGGAUCAGCAUUGCAUAGUAUUUAGUUA the “pre-steady-state target cleavage rate” value was 0.0165 ± 0.0047. With UCCUGGAACAGCUUGCAAUGUAUUUAGUAA the “pre-steady-state target cleavage rate” value was 0.00598 ± 0.003. UCCUGGAUGUCGAUGCUUAGUAUUUAGUUA was tested, and the “pre-steady-state target cleavage rate” value was 0.000784 ± 0.0079. With UCCUGGAUGAGCUUGCAUUGUAUUUACAAA the “pre-steady-state target cleavage rate” value was 0.00172 ± 0.0043. For UCCUGGAUGUCGUUGCAGAGUAUUUAGUUA, the “pre-steady-state target cleavage rate” value was 0.00122 ± 0.0069. In the case of UCCUGGAACAGGUUGCAUAGUUUUUAGUUA, the “pre-steady-state target cleavage rate” value is reported as 0.0162 ± 0.0044. UCCUGGUACAGCUUCGUUAGUAUUUACAAA was tested, and the “pre-steady-state target cleavage rate” value was 0.000537 ± 0.011. For UCCUGGAUGUCCUUGCAUAGGUAUUUAGUUA, the “pre-steady-state target cleavage rate” value was 0.00199 ± 0.0047. In the case of UCCUGGAACAGCUUGCUUUGUAUUUAGUUA, the “pre-steady-state target cleavage rate” value is reported as 0.00848 ± 0.0027. UCCUGGUAGACCUUGCAUAGUAUUUAGUUA was tested, and the “pre-steady-state target cleavage rate” value was 0.00968 ± 0.0029.
